# Measured values as given in patent US20250136720A1.
# Sequences of proteins named here, by UniProt entry; tags and fusion partners are left off. A change or cut given only in a name is not applied to a line headed by its entry. Residues count along the entry.
# UniProt P97321: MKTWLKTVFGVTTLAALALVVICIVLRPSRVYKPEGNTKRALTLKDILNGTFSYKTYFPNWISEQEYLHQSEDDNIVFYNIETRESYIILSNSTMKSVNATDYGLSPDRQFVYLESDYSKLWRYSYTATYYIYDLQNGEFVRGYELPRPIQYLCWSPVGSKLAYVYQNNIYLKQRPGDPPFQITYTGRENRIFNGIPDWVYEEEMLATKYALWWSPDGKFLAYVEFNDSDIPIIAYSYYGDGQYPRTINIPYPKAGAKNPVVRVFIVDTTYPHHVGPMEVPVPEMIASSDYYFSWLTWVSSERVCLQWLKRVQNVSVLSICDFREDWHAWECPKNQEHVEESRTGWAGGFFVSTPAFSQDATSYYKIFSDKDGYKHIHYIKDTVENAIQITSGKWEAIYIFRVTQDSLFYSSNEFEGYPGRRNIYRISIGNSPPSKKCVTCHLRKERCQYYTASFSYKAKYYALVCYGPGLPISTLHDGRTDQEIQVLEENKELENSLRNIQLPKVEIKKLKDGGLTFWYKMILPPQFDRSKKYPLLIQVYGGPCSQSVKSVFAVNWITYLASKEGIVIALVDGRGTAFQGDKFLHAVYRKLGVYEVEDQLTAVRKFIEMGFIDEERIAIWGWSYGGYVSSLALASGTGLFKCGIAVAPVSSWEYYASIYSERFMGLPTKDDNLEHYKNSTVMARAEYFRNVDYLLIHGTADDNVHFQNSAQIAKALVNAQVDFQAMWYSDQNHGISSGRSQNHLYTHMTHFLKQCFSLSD
# UniProt Q07011, residues 24-186: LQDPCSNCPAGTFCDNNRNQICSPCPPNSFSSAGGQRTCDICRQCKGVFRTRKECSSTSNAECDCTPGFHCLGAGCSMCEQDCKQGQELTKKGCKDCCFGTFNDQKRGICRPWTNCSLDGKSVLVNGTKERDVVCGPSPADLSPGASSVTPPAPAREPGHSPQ
# These are yes or no findings as the source states them, for the method shown. Some entries that bind do so weakly or less than the wild type.
# Key:
# [1] = target: Murine Fibroblast Activation Protein (FAP) on B16 cells (mouse) (UniProt P97321); experiment: flow cytometry, scFv-Fc on B16 cells expressing murine FAP against B16 wild type
# [2] = target: biotinylated huCD137-6xHis (human) (UniProt Q07011); experiment: sandwich ELISA, Fab captured by anti-Fd, biotinylated huCD137
# [3] = target: biotinylated huCD137-6xHis (human) (UniProt Q07011); experiment: ELISA, Fab captured by anti-Fd, biotinylated huCD137 (y axis unlabelled, 0.00-0.75; no negative control on the sheet)
# [4] = target: biotinylated huCD137-6xHis (human) (UniProt Q07011); experiment: ELISA, Fab captured by anti-Fd, biotinylated huCD137 (y axis unlabelled, 0.00-1.75; no negative control on the sheet)
# [5] = target: biotinylated huCD137-6xHis (human) (UniProt Q07011); experiment: sandwich ELISA: Fab captured by anti-Fd, titration of biotinylated huCD137 (x axis: Log concentration, ug/ml AG)
binding [1],binding [2],binding [3],binding [4],binding [5],Binder
binds,–,–,–,–,FAP.63.G3 (Fc fusion) VH: DVQLVESGGGVVRPGESLTLSCAASGFTFSNYDMGWVRQAPGEGLEWVSGIRGRGGSTYYADSVKGRFTISRDSSKNTLYLQMNSLRAEDTAVYYCAKENNRHSFFEYWGLGTLVTVSS VL: EIVLTQSPGTLSLSPGERATLSCRASQSVGHYLAWYQQKPGQAPRLLIYDASNRAIDIPDRFSGSGSGTEFTLTISRLEPEDFAVYYCQQYYNNWPPLTFGGGTKVEIK
–,binds,binds,–,–,"B21-55 (Fab, V domains shown) VH: EVQLVESGGGLVQPGGSLRLSCAASGFTFSDFYMAWVRQAPGKGLEWVANINYDGSSTYYLDSLKSRFTISRDNAKNILYLQMNSLRAEDTAVYYCAREGDEGWYFDVWGQGTTVTVSS VL: DIQMTQSPSSLSASVGDRVTITCKASQDVSTAVAWYQQKPGKAPKLLIYSASYRYTGVPSRFSGSGSGTDFTLTISSLQPEDFAVYYCQQHYSNPWTFGQGTKLEIK"
–,binds,binds,–,–,"B21-49 (Fab, V domains shown) VH: EVQLVESGGGLVQPGGSLRLSCAASGFTFSDFYMAWVRQAPGKGLEWVANINYDGSSTYYLDSLKSKFTISRDNAKNILYLQMQSLRAEDTAVYYCAREGDEGWYFDVWGQGTTVTVSS VL: DIQMTQSPSSLSASVGDRVTITCKASQDVSTAVAWYQQKPGKAPKLLIYSASYRYTGVPDRFSGSGSGTDFTLTISSLQPEDFAVYYCQQHYSNPWTFGQGTKLEIK"
–,–,–,binds,–,"B21-v16 (Fab, V domains shown) VH: EVQLVESGGGLVQPGGSLRLSCAASGFTFSDFYMSWVRQAPGKGLEWVANINYEGSSKYYVESVKGRFTISRDNAKNILYLQMNSLRAEDTAVYYCAREGDEGWYFDVWGQGTTVTVSS VL: DIQMTQSPSSLSASVGDRVTITCKASQDISSAVAWYQQKPGKAPKLLIYSASSRYTGVPSRFSGSGSGTDFTLTISSLQPEDFAVYYCQQHYSNPWTFGQGTKLEIK"
–,binds,binds,binds,binds,"chimeric CD137 B21 Fab (Fab, V domains shown) VH: EVKLVESEGGLVQPGSSMKLSCTASGFTFSDFYMAWVRQVPEKGLEWVANINYDGSSTYYLDSLKSRFIISRDNARNILYLQMSSLKSEDTATYYCAREGDEGWYFDVWGAGTTVTVSS VL: DIVMTQSHKFMSTSVGDRVSITCKASQDVSTAVAWYQQKPGQSPKLLIYSASYRYTGVPDRFTGSGSGTDFTFTISSVQAEDLAVYYCQQHYSNPWTFGGGTKLEIK"
